The text below walks through data of patent publication US9840640B2, “Article having antifouling properties for aquatic and particularly sea use” (priority 2008, dated 2017).

Series [1] can be described thus: Catalyst activity test: crosslinking of α,ω-dihydroxylated oil 48V100 with ethyl silicate. The note with it: for Hard/liquid after 24 h: 1.24 mmol catalyst.
A short description of series [2]: Tack Free Time and pot-life of topcoat formulations. The note with it: 3.34 mmol catalyst in topcoat Formulation 1 base.
The mark [3] stands for this setting: text summary of comparative test 2.

In the case of `CC(=O)/C=C(/C)[O-].CC(=O)/C=C(/C)[O-].CC(=O)/C=C(/C)[O-].[Fe+3]` [Comparative 2, Fe(acac)3], in series [1], the “Hard/liquid after 24 h” value is recorded as “hard”. For the same compound, in series [1] (setting [3]), the crosslinking time result was “more than 7 hours” and the tack time result is listed as “more than 6 hours”. As to “[Fe(EAA)2 (2-ethylhexanoato)] [Catalyst (6)]”, the “Hard/liquid after 24 h” value in series [1] is “hard”. `CCOC(=O)C=C(C)[O][Fe]([O]C(C)=CC(=O)OCC)[O]C(C)=CC(=O)OCC` [Catalyst (2), [Fe(EAA)3]]: in series [1], the “Hard/liquid after 24 h” value is given as “hard”. As for “tetrabutyldistannoxane dilaurate [Comparative 1]”, in series [1], the “Hard/liquid after 24 h” value was “hard”. For `C/C(=C/C(=O)OC(C)(C)C)[CH2][Fe]([O]/C(C)=C/C(=O)OC(C)(C)C)[O]/C(C)=C/C(=O)OC(C)(C)C` [Catalyst (5), [Fe(tBu-AA)3]], in series [2], the Pot-life came out at 20 min and the “Tack Free Time (time necessary to obtain a dry surface)” value worked out at 10 min. Take `CCCCC(CC)C(=O)[O-].CCCCC(CC)C(=O)[O-].CCOC(=O)C=C(C)[O-].[Fe+3]` (centres unmarked) [Catalyst (7), [Fe(EAA) (2-ethylhexanoato)2]]: in series [1], the “Hard/liquid after 24 h” value is “hard”. Consider `C/C(=C/C(=O)OCC(C)C)[CH2][Fe]([O]/C(C)=C/C(=O)OCC(C)C)[O]/C(C)=C/C(=O)OCC(C)C` [Catalyst (4), [Fe(iBu-AA)3]], for which, in series [2], the Pot-life came to 45 min and the “Tack Free Time (time necessary to obtain a dry surface)” value came to 45 min.
